Counter-ions that a name gives are not always drawn. The list shows a part of the results. This data set is noisy: repeats of one test often differ as much as different tests do.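 Human kidney-derived cells stably carry a construct in which eight TEAD-binding elements drive luciferase, measured by luminescence in a drug-repurposing library screen. A hit is any compound whose signal exceeds the plate mean by more than five robust Z scores.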
System: HEK293A TEAD-LUC reporter
Assay: TEAD-luciferase reporter activity (YAP activation), robust Z score vs plate; higher = stronger YAP/TEAD activation
Conditions: 24 h

SMILES	TEAD-luciferase reporter activity (compound concentration: 200 nM)	TEAD-luciferase reporter activity (compound concentration: 2 uM)	TEAD-luciferase reporter activity (compound concentration: 10 uM)
CCOC(=O)c1ccc(/C=C(\C)c2ccc3c(c2)C(C)(C)CCC3(C)C)cc1	inactive: 0.137	inactive: -0.912	inactive: 0.0987
Nc1ccn(C2OC(CO)C(O)C2O)c(=O)n1 (stereo unspecified) [cytarabine, Access]	inactive: -1.95	inactive: -2.23	inactive: -0.767
O=C(O)CCCNC(=O)c1cccnc1 [Pikamilone]	inactive: -1.47	inactive: -0.0998	inactive: -1.98
CCCCc1cc(CC(C)C)c(C=O)n1Cc1ccc(-c2ccccc2-c2nnn[nH]2)cc1	inactive: 0.907	active: 8.51	active: 9.34
O=C1CCCc2c1ccn2CCN1CCN(c2cccc(Cl)c2)CC1	inactive: -0.951	inactive: 1.13	inactive: -1.53
N#Cc1cnc(Nc2cc(NC[C@H]3CNCCO3)c(C(F)(F)F)cn2)cn1	inactive: -0.236	inactive: 0.541	inactive: -0.558
CC(=O)N1Cc2ccccc2CC2(CCCCN2Cc2ccccc2)C1 (stereo unspecified)	inactive: -2.88		inactive: 0.388
C=C1C(=O)O[C@@H]2[C@H]3C(C)=CC[C@@]34O[C@@]4(C)CC[C@@H]12 [Arglabin]	inactive: -0.0753	inactive: -1.62	inactive: -2.04
CCO/N=C/c1ccc(OCCC2CCN(c3ccc(C)nn3)CC2)cc1	inactive: -2.28	inactive: -0.484	inactive: 0.226
CC(C)OC(=O)C1=CN(C(=O)c2ccc(F)c(F)c2)CC(C)(C)c2c1[nH]c1ccccc21 [Turofexorate isopropyl]	inactive: -1.64	inactive: -0.596	inactive: -2.21
CCCCOc1ccc(OCCCN2CCOCC2)cc1	inactive: -2.42		inactive: 1.51
CCCCOc1ccc(OCCCN2CCOCC2)cc1 [Pramoxine hydrochloride]		inactive: -1.37	
O=S(Cc1cc(OCC(F)(F)C(F)(F)C(F)(F)F)ccn1)c1nc2cscc2[nH]1 (stereo unspecified)	inactive: 0.902	inactive: -1.06	inactive: -0.186
C[C@H]1[C@H](C)CC[C@]2(C(=O)O)CC[C@]3(C)C(=CC[C@@H]4[C@@]5(C)C[C@@H](O)[C@H](O)C(C)(C)[C@@H]5CC[C@]43C)[C@H]12 [Corosolic acid]	inactive: -0.132	inactive: -0.518	inactive: -1.6
O=S(=O)(NCl)c1ccccc1	inactive: -0.555	inactive: -0.216	inactive: -0.853
CCC/C=C1\OC(=O)C2=C1CCC=C2 [Ligustilide]	active: 5.32	inactive: -0.481	inactive: 1.95
CNc1ncnc2c1ncn2Cc1ccccc1F	inactive: -0.541	inactive: -1.36	inactive: 0.773
CC(=O)Nc1ccc(C=NNC(N)=S)cc1	inactive: 0.0124	inactive: -0.45	inactive: -1.11
O=C(c1ccc(O[C@H]2C[C@H](N3CCCCC3)C2)cc1)N1CCOCC1 [analog of UCB-2892]	inactive: 4.81	inactive: 0.921	inactive: -0.0101
CN(C)CCOC(C)(c1ccccc1)c1ccccc1	inactive: -0.23	inactive: 1.53	inactive: 0.999
CC(=O)O[C@@H]1[C@H]2OC(C)(C)O[C@H]2O[C@@H]1[C@H]1COC(C)(C)O1	inactive: -0.112	inactive: 0.244	inactive: 0.393
NC(=O)[C@@H]1CN(CCCCC(c2ccc(F)cc2)c2ccc(F)cc2)CCN1CC(=O)Nc1c(Cl)cc(N)cc1Cl	inactive: -2.12	inactive: -1.12	inactive: 1.48
CC(OCCN1CCCCCC1)(c1ccccc1)c1ccc(Cl)cc1 (stereo unspecified) [setastine]	inactive: -0.77	inactive: -1.8	inactive: -1.17
O=c1nc[nH]c2c([C@@H]3N[C@H](CO)[C@@H](O)[C@H]3O)c[nH]c12 [forodesine hydrochloride]	inactive: 0.796	inactive: -0.653	inactive: 0.454
CCOC(=O)N[C@@H]1CC[C@@H]2[C@@H](C1)C[C@H]1C(=O)O[C@H](C)[C@H]1[C@H]2/C=C/c1ccc(-c2cccc(F)c2)cn1 [Vorapaxar]	inactive: 0.581	inactive: -3.28	inactive: 0.125
CCC1Nc2cc(Cl)c(S(N)(=O)=O)cc2S(=O)(=O)N1 (stereo unspecified)	inactive: 0.934	inactive: -0.926	inactive: 0.112
C[C@@H]1C[C@H]2[C@@H]3CCC4=CC(=O)C=C[C@]4(C)[C@@]3(F)[C@@H](O)C[C@]2(C)[C@H]1C(=O)CO	inactive: -0.645		inactive: 1.22
C[C@@H]1C[C@H]2[C@@H]3CCC4=CC(=O)C=C[C@]4(C)[C@@]3(F)[C@@H](O)C[C@]2(C)[C@H]1C(=O)CO [desoximetasone]		inactive: -0.0423	

Shown with bars between the fields: part of the list above
SMILES | TEAD-luciferase reporter activity (compound concentration: 200 nM) | TEAD-luciferase reporter activity (compound concentration: 2 uM) | TEAD-luciferase reporter activity (compound concentration: 10 uM)
Nc1ccn(C2OC(CO)C(O)C2O)c(=O)n1 (stereo unspecified) [cytarabine, Access] | inactive: -1.95 | inactive: -2.23 | inactive: -0.767
CCCCc1cc(CC(C)C)c(C=O)n1Cc1ccc(-c2ccccc2-c2nnn[nH]2)cc1 | inactive: 0.907 | active: 8.51 | active: 9.34
O=C1CCCc2c1ccn2CCN1CCN(c2cccc(Cl)c2)CC1 | inactive: -0.951 | inactive: 1.13 | inactive: -1.53
O=S(Cc1cc(OCC(F)(F)C(F)(F)C(F)(F)F)ccn1)c1nc2cscc2[nH]1 (stereo unspecified) | inactive: 0.902 | inactive: -1.06 | inactive: -0.186
CCOC(=O)N[C@@H]1CC[C@@H]2[C@@H](C1)C[C@H]1C(=O)O[C@H](C)[C@H]1[C@H]2/C=C/c1ccc(-c2cccc(F)c2)cn1 [Vorapaxar] | inactive: 0.581 | inactive: -3.28 | inactive: 0.125

Next part.

SMILES	TEAD-luciferase reporter activity (compound concentration: 200 nM)	TEAD-luciferase reporter activity (compound concentration: 2 uM)	TEAD-luciferase reporter activity (compound concentration: 10 uM)
CC1(C)[C@H]2C[C@H](C/C=C\CCCC(=O)O)[C@@H](NC(=O)c3csc4ccc(O)cc34)[C@@H]1C2	inactive: -1.41	inactive: 2.05	inactive: 1.37
CSc1ccc(-c2ccc(S(=O)(=O)N[C@@H](C(=O)O)C(C)C)cc2)cc1	inactive: -0.639	inactive: -1	inactive: 0.564
CN1CCCC1CCNC(=O)c1cn2c3c(c(N4CCC(c5cnccn5)C4)c(F)cc3c1=O)Oc1cc3ccccc3cc1-2 (stereo unspecified)	inactive: -1.08	inactive: 0.177	inactive: -1.27
COc1cccc(-c2ccc(C(=O)N3CCC(NC(=O)c4ccc(F)cc4)CC3)cc2)c1	inactive: 2.1		inactive: 1.59
Nc1sc2c(c1C(=O)c1ccc(Cl)cc1)CCCC2	inactive: -1.24	inactive: -1.66	inactive: 0.255
O=C(C(Cl)Cl)N(CCO)Cc1ccc(Oc2ccc([N+](=O)[O-])cc2)cc1	active: 7.44	inactive: -1.19	inactive: 0.115
CC(C)(CNC(N)=O)NCC(O)COC(=O)c1ccccc1F (stereo unspecified)	inactive: 1.19	inactive: -0.0231	inactive: -0.0537
Cc1ccc2[nH]cc(CC(C)(C)NCC(O)COc3cccc4[nH]c(C)cc34)c2c1 (stereo unspecified)	inactive: -2.41	inactive: -0.569	inactive: 3.79
CCCCCCN(CCc1ccccc1)C(=O)COc1ccc(CC(OCC)C(=O)O)cc1 (stereo unspecified)	inactive: -1.22	inactive: -0.304	inactive: 1.28
COc1ccc(NS(=O)(=O)c2c(F)cccc2F)cc1	inactive: -0.884	inactive: -2.38	inactive: -1.03
CCCCC(CC)C1NC(=O)N(SC(Cl)(Cl)Cl)C1=O (stereo unspecified)	inactive: -0.291	inactive: 4.39	inactive: 2.93
Cc1c2cc[n+]([C@@H]3OC[C@H](O)[C@H](O)[C@H]3O)cc2c(C)c2c1[nH]c1ccc(O)cc12 [Ellipravin]	inactive: -0.751	inactive: -0.965	inactive: 1.69
COCCOC[C@H](CC1(C(=O)N[C@H]2CC[C@@H](C(=O)O)CC2)CCCC1)C(=O)O	inactive: 0.409	inactive: -1.12	inactive: -0.964
Oc1nn(-c2ccccc2)c(O)c1-c1ccccc1	inactive: -0.278	inactive: -0.79	inactive: 1.05
CCCCCCCCCCCCCC[N+](C)(C)C	inactive: -0.895	inactive: -0.805	inactive: -0.332
CCOc1ccc(C(=O)OCCN(CC)CC)cc1	inactive: -1.29	inactive: 0.186	inactive: 1.83
CCCCCCN(Cc1ccc(CC(C)(C)C)cc1)C(Nc1cc(C(C)(C)C)c(O)c(C(C)(C)C)c1)=C1C(=O)OC(C)(C)OC1=O	inactive: -0.977	inactive: -0.162	inactive: 1.18
C=C1C[C@@H]2CC[C@@]34C[C@H]5O[C@H]6[C@@H](O3)[C@H]3O[C@H](CC[C@@H]3O[C@H]6[C@H]5O4)CC(=O)C[C@@H]3[C@@H](OC)[C@@H](C[C@H](O)CN)O[C@H]3C[C@H]3O[C@@H](CC[C@@H]1O2)C[C@@H](C)C3=C [Eribulin (mesylate)]	inactive: -0.2		inactive: -0.382
COc1nn(-c2cccc(NC(C)=O)c2)c(=O)n(Cc2ccc(Cl)c(F)c2)c1=O		inactive: -0.923	
NCCCN1C(=O)NC2(CCCCC2)C1=O	inactive: -2.54	inactive: 2.33	inactive: -1.96
O=C([O-])CN(CCN1CC(=O)[O][Mn][O]C(=O)C1)CC(=O)[O-] [EDETATE manganese DISODIUM]	inactive: -1.84	inactive: -0.663	inactive: -0.408
CC(=O)OCCOCn1cnc2c(O)nc(N)nc21	inactive: 0.571	inactive: -0.849	inactive: 1.88
Cc1c(OCC(F)(F)F)ccnc1CS(=O)c1nc2ccccc2[nH]1 (stereo unspecified) [dexlansoprazole]		inactive: 1.26	
Cc1c(OCC(F)(F)F)ccnc1CS(=O)c1nc2ccccc2[nH]1 (stereo unspecified) [Lansoprazole]	inactive: 0.626		inactive: 3.75
CCC(=O)O[C@]1(C(=O)CO)CC[C@H]2[C@@H]3CCC4=CC(=O)CC[C@]4(C)[C@H]3CC[C@@]21C [Cortexolone 17alpha-propionate]	inactive: 4.99	inactive: -0.602	inactive: 1.42
CCN(CC)CCOC(=O)c1cccc(-c2ccccc2)c1O	inactive: -1.95	inactive: -0.0114	inactive: -0.451
COc1nc(N)c2ncn([C@@H]3O[C@H](CO)[C@@H](O)[C@H]3O)c2n1 [Spongosine]	inactive: 0.278	inactive: 0.115	inactive: 2.89

Reference: the supplement of paper PMC10735217
